From paper PMC9007350, “Aurintricarboxylic acid is a canonical disruptor of the TAZ-TEAD transcriptional complex” (PLoS ONE, 2022)
This continues a long series; more values of the same kind are listed elsewhere.

System: TC/TEAD transcriptional profile in TC-expressing NIH3T3 cells
Assay: Bulk RNA-Seq, differential gene expression and GSEA (TC ATA v. TC DMSO)
Format: cell-based, murine
Conditions: TC ATA v. TC DMSO
Method: NIH3T3 and HEK293 cells were obtained from the American Type Tissue Collection (ATCC, Manassas, VA) and cultured in DMEM containing 10% fetal bovine serum and penicillin/streptomycin. A TEAD dual luciferase reporter assay was performed as previously described. Cells were treated with vehicle control or ATA (10 μM) for 48 h before measuring the luciferase activity or processing the samples for RNA extraction. Each experiment was repeated at least 2-3 times. NIH3T3 cells were used. The extracted RNA (RNeasy Mini, Qiagen) from treated cells was either used for qPCR measurements or sent for bulk RNA-Seq. Sequencing runs were performed on an Illumina HiSeq 4000 sequencer (Genewiz). Subsequent bioinformatics analysis was performed in the Galaxy Project platform. Paired end reads were aligned to the murine genome ([…]2 [27]. Raw count files were generated with featureCounts using a corresponding GTF reference. Differential gene expression analysis was performed with DESeq2 [29]. Transcripts were considered to be differentially expressed if the false discovery rate < 0.05 and Log2FC > 2. When performing differential gene expression for GSEA analysis, the Limma package was used (<5 CPM filtering) with t-scores used for rank statistics. GSEA plots and statistics were generated with FGSEA with custom gene sets. Raw sequencing reads and processed files have been deposited in the GEO repository (data will be uploaded upon manuscript acceptance). The Universal Probe Library probes (Roche) and the associated primer sequences for the qPCR targets are listed below: […]

For `O=C(O)C1=CC(=C(c2ccc(O)c(C(=O)O)c2)c2ccc(O)c(C(=O)O)c2)C=CC1=O` [ATA, aurintricarboxylic acid], the “Log2 Fold Change” value (Klf5) was -0.2855, the “Log2 Fold Change” value (Klhl24) was 0.2866 and the “Log2 Fold Change” value (Kpnb1) was -0.222. For the same compound, the “Log2 Fold Change” value (Lars) was -0.211, the “Log2 Fold Change” value (Leprot) was 0.2281 and the “Log2 Fold Change” value (Lipa) was 0.3212. The “Log2 Fold Change” value (Lrrc39) was 1.097, the “Log2 Fold Change” value (Lyar) was -0.2586 and the “Log2 Fold Change” value (Map1b) was -0.272. The “Log2 Fold Change” value (Map2k1) was -0.2205, the “Log2 Fold Change” value (Mdn1) was -0.3419 and the “Log2 Fold Change” value (Metap1) was -0.2159. The “Log2 Fold Change” value (Mettl7a1) was 0.4512, the “Log2 Fold Change” value (Mgst2) was 0.5497 and the “Log2 Fold Change” value (Misp3) was 0.5752. For the same compound, the “Log2 Fold Change” value (Mmd) was -0.3011, the “Log2 Fold Change” value (Mn1) was 0.3801 and the “Log2 Fold Change” value (Mpp6) was -0.207. The “Log2 Fold Change” value (Mrps10) was -0.2675, the “Log2 Fold Change” value (Myh6) was 1.256 and the “Log2 Fold Change” value (Mylk4) was 0.692. For the same compound, the “Log2 Fold Change” value (Mylk) was 0.6396, the “Log2 Fold Change” value (Nacc2) was 0.2971 and the “Log2 Fold Change” value (Nap1l1) was -0.2071. The “Log2 Fold Change” value (Net1) was -0.2446, the “Log2 Fold Change” value (Neu1) was 0.2823 and the “Log2 Fold Change” value (Ngly1) was 0.3979. For the same compound, the “Log2 Fold Change” value (Nid2) was 0.4596, the “Log2 Fold Change” value (Noc2l) was -0.2621 and the “Log2 Fold Change” value (Nol10) was -0.2148. For the same compound, the “Log2 Fold Change” value (Nolc1) was -0.2369, the “Log2 Fold Change” value (Npas4) was 0.579 and the “Log2 Fold Change” value (Nsun2) was -0.2003. For the same compound, the “Log2 Fold Change” value (Nt5dc3) was -0.2851, the “Log2 Fold Change” value (Nup160) was -0.2228 and the “Log2 Fold Change” value (Nup205) was -0.2231. For the same compound, the “Log2 Fold Change” value (Oaf) was -0.2739, the “Log2 Fold Change” value (P4ha3) was 0.2953 and the “Log2 Fold Change” value (Pappa) was 0.5236. For the same compound, the “Log2 Fold Change” value (Pawr) was 0.2769, the “Log2 Fold Change” value (Pcdhb9) was 0.6083 and the “Log2 Fold Change” value (Pdgfc) was 0.2436. The “Log2 Fold Change” value (Pdlim3) was 0.5354, the “Log2 Fold Change” value (Pdlim5) was 0.2888 and the “Log2 Fold Change” value (Perm1) was 0.7366. The “Log2 Fold Change” value (Pfas) was -0.3358, the “Log2 Fold Change” value (Pfkm) was 0.2521 and the “Log2 Fold Change” value (Pgam2) was 0.5329. For the same compound, the “Log2 Fold Change” value (Phactr1) was 0.3767, the “Log2 Fold Change” value (Pik3ip1) was 0.4583 and the “Log2 Fold Change” value (Pik3r1) was 0.2713. For the same compound, the “Log2 Fold Change” value (Plac1) was -0.7794, the “Log2 Fold Change” value (Plekha1) was -0.3132 and the “Log2 Fold Change” value (Plekhh2) was 0.2808. The “Log2 Fold Change” value (Plin4) was 0.6111, the “Log2 Fold Change” value (Plpp1) was 0.2637 and the “Log2 Fold Change” value (Pnrc1) was 0.328. The “Log2 Fold Change” value (Polr3gl) was 0.469, the “Log2 Fold Change” value (Ppat) was -0.2439 and the “Log2 Fold Change” value (Pramef8) was 0.3225. The “Log2 Fold Change” value (Prc1) was -0.2082, the “Log2 Fold Change” value (Prickle1) was 0.3258 and the “Log2 Fold Change” value (Prrx1) was 0.2153. For the same compound, the “Log2 Fold Change” value (Prss23) was 0.2592, the “Log2 Fold Change” value (Psca) was 0.6613 and the “Log2 Fold Change” value (Ptpn21) was -0.2255. The “Log2 Fold Change” value (Pttg1ip) was -0.2103, the “Log2 Fold Change” value (Pygm) was 0.4335 and the “Log2 Fold Change” value (Rab3c) was 0.5021. For the same compound, the “Log2 Fold Change” value (Rai14) was -0.2838, the “Log2 Fold Change” value (Rap1gds1) was -0.2029 and the “Log2 Fold Change” value (Rcn3) was 0.2746. For the same compound, the “Log2 Fold Change” value (Rftn2) was 0.314, the “Log2 Fold Change” value (Rfx2) was 0.4272 and the “Log2 Fold Change” value (Rhoj) was 0.2731. The “Log2 Fold Change” value (Rhoq) was 0.2495, the “Log2 Fold Change” value (Rin2) was 0.3262 and the “Log2 Fold Change” value (Rnaseh2a) was -0.2573. The “Log2 Fold Change” value (Rnd1) was -0.3278, the “Log2 Fold Change” value (Rnf19b) was -0.2794 and the “Log2 Fold Change” value (Rnf144a) was 0.3402. For the same compound, the “Log2 Fold Change” value (Rora) was 0.6043, the “Log2 Fold Change” value (Ruvbl2) was -0.2512 and the “Log2 Fold Change” value (Scara5) was 0.5618. For the same compound, the “Log2 Fold Change” value (Scp2) was 0.2571, the “Log2 Fold Change” value (Sema3a) was -0.3608 and the “Log2 Fold Change” value (Sema6c) was 0.5141. For the same compound, the “Log2 Fold Change” value (Shmt2) was -0.2428, the “Log2 Fold Change” value (Sipa1l3) was -0.3061 and the “Log2 Fold Change” value (Slc2a4) was 0.6518. For the same compound, the “Log2 Fold Change” value (Slc29a2) was -0.4299, the “Log2 Fold Change” value (Slc38a6) was 0.3447 and the “Log2 Fold Change” value (Slc44a1) was 0.2575. For the same compound, the “Log2 Fold Change” value (Slk) was -0.2569, the “Log2 Fold Change” value (Smarca2) was 0.2974 and the “Log2 Fold Change” value (Smox) was 0.2959. For the same compound, the “Log2 Fold Change” value (Sned1) was 0.6541, the “Log2 Fold Change” value (Socs6) was -0.2405 and the “Log2 Fold Change” value (Sox5) was 0.4942. For the same compound, the “Log2 Fold Change” value (Spo11) was -0.526, the “Log2 Fold Change” value (Spry1) was 0.3907 and the “Log2 Fold Change” value (Spsb2) was 0.3042. For the same compound, the “Log2 Fold Change” value (Srpx2) was 0.6084, the “Log2 Fold Change” value (Stk38l) was 0.3153 and the “Log2 Fold Change” value (Sync) was 0.7364. For the same compound, the “Log2 Fold Change” value (Synpo2) was 0.4619, the “Log2 Fold Change” value (Tacc1) was 0.349 and the “Log2 Fold Change” value (Tacc2) was -0.2478. The “Log2 Fold Change” value (Tap2) was 0.3384, the “Log2 Fold Change” value (Tbc1d2) was -0.3647 and the “Log2 Fold Change” value (Tcn2) was 0.6828. The “Log2 Fold Change” value (Tcp11l2) was 0.7827.
